In patent US20130131322A1:
Residue numbers refer to the chain shown, from its start. Results are given in words; binding and its absence hold for the method and conditions named. Some entries that bind do so weakly or less than the wild type.

By UniProt entry, the sequences of proteins in these tests, tags left out. Where a name states a change or a piece, a line headed by the entry shows the natural chain unless it says otherwise.
UniProt P01135: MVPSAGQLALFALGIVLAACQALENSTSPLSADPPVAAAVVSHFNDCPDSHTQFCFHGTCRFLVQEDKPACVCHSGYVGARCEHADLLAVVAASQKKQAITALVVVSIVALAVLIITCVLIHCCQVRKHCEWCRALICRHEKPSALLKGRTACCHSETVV

Biological target: proTGF-α-mH (human) (UniProt P01135)
Assay: IP of proTGFα-mH

B1: MBL259-3 (antibody, mouse IgG2a, V domains shown)
VH: VQLQQSGAELVRPGASVKLSCTASDFNIKDDYMHWMKQRPEQGLEWIGRIDPANGNTKYAPKFQDKATMTADTSSNTAYLQFSSLTSEDTAVYYCATSWGFPYWGQGTLVTVSA
VL: DIVMTQAAPSVPVTPGESVSISCRSSKSLLHRNGNTYLYWFLQRPGQSPQLLIYRMSNLASGVPDRFSGSGSGTAFTLRISRVEAEDVGVYYCLQHLEYPYTFGSGTKLEIK
  binding: binds

B2: MBL292-1 (antibody, mouse IgG1, V domains shown)
VH: VQLQQSGAELVRPGASVKLSCTASGFNIKDDYMHWMKQRPEQGLEWIGRIDPANGNTKYAPKFQDKATITADTSSNTAYLQLSSLTSEDTAVYYCSRMGLLRGYWGQGTTLTVSS
VL: IQMTQSSSSLSVSLGDRVTITCKASVHINSWLAWYQQKPGNAPRLLISGATNLKTGVPSRFSGSASGKDYTLSITSLQTEDVATYYCQQYWDTPWTFGGGTKLEIK
  binding: binds

B3: MBL352-34 (antibody, mouse IgG1, V domains shown)
VH: B2 VH with M36V, N56H, L82F, S96T, L101R
VL: B2 VL with V26E, D92G
  binding: binds

B4: MBL009-15 (antibody, mouse IgG1, V domains shown)
VH: VQLQESGPGLVKPSQSLSLTCTVTGYSITSDYAWNWIRQFPGNKLEWMGYISYSGSTSYNPSLKSRISITRDTSKNQFFLQLNSVTTEDTATYYCARGGITRFAYWGQGTLVTVSA
VL: DIQMTQTTSSLSASLGDRLTISCRASQDIRNYLNWYQQKPDGTVKLLIYYTSRLHSGVPSRFSGSGSGTDYSLTISNLEQEDIATYFCQQGNTLPWTFGGGTKLEIK
  binding: binds

B5: MBL016-8 (antibody, mouse IgG2a, V domains shown)
VH: VQLQQSGAELVRPGASVKLSCTASGFNIKDDYMYWVKQRPEQGLEWIGRIDPANGNTKYAPKFQDKATITADTSSNTAYLHLSSLTSEDTAVFYCAYRRAYWGQGTLVTVSA
VL: DIQMTQSPSSLSASLGGKVTITCKASQDINKYIAWYQHKPGKGPRLFIHYTSKLQPGIPSRFSGSGSGRDYSFSISNLEPEDIATYYCLQYDNLLYTFGGGTKLEIK
  binding: binds

B6: MBL018-1 (antibody, mouse IgG1, V domains shown)
VH: EVQLQQSGTVLTRPGASVKMSCKASGYTFTNFWIHWVKQRPGQGLDWIGAIYPGNTNTDYNQKFQGKAKLTAVSSASTAYMELSSLTNEDSAVYYCTRGGAMDYWGQGTSVTVSS
VL: IVMTQTPKLLPVSAGDRVTMTCKASQSVDNSVAWYQQKPGQSPKLLIFYASNHYTGVPDRFTASGSGTDFTFTISSVQVEDLAVYFCQQHFSSPRTFGGGTKLEIR
  binding: binds

B7: MBL144-1 (antibody, mouse IgG1, V domains shown)
VH: VQLQESGPGLAKPSQTLSLTCSVTGYSITSDYWNWIRKFPGNKLEYMGYISYSGSTYYNPSLKSRISITRDTSKNQYYLQLNSVTTEDTATYYCARSYDGICFDNWGQGTTLTVSS
VL: DILMTQSPATLSVTPGETVSLSCRASQNTYKNLHWYQQKSHGTPKLLIKYASAPISGIPSRFTGSGSGTDYTLSINSVKPEDEGIYYCLQGYSMPWTFGGGTKLEIK
  binding: binds

B8: MBL184-6 (antibody, mouse IgG1, V domains shown)
VH: EVQLQQSGAELVRPGASVKLSCTVSGFNIKDDYMHWVKQRPEQGLEWIGRIDPANGHTKYAPKFQDKATITADTSSNTAYLQFSSLTSEDTAVYYCTRMGLRRGYWGQGTTLTVSS
VL: B2 VL with V26E, S73N, D92G
  binding: binds
